Patent US7259140B2, “Heparin-binding peptides and uses thereof” (Thomas Jefferson University, priority 2003, dated 2007)
Part of at least one peptide drawing is inferred or uncertain, most often the ends. Ends that are not written are not given here.

Assays:
[1] = tested on: anti-Factor Xa Activity of Unfractionated Heparin; test: Anti-Factor Xa assay: neutralization of unfractionated heparin in citrate or plasma in vitro; format: biochemical, human; settings: UFH 0.7 U/ml
Protocol: The ability of peptides such as (ARKKAAKA)3VLVLVLVL (SEQ ID NO:5) to neutralize the anti-Factor Xa activity of UFH and LMWH in vitro was tested using the Stachrom Heparin kit (Diagnostica Stago), a standard hematology laboratory assay used to measure the anti-Factor Xa activity of heparin. The assay was performed using the low molecular weight heparin enoxaparin sodium (Lovenox®, Aventis Pharmaceuticals, Inc.), unfractionated heparin (UFH), or the non-heparin glycosaminoglycan danaparoid sodium (Orgaran®, Organon Inc., West Orange, N.J.) in 0.32% citrate or in plasma anticoagulated with 0.32% citrate. Enoxaparin is commonly used clinically as a low molecular weight heparin (LMWH). Danaparoid is commonly used clinically as a non-heparin glycosaminoglycan anticoagulant. Currently, the only FDA approved drug to target UFH is protamine, which is not effective in vivo against LMWH or a non-heparin glycosaminoglycan such as danaparoid. Buffer and ATIII are added to form the heparin/ATIII complex, peptide is added, then Factor Xa, reporter dye substrate for Factor Xa activity, and stop solution, and the dye concentration is read at 405 nm. The absorbance of the dye increases with increasing Factor Xa activity, and thus is inversely proportional to the heparin (anti-Factor Xa activity) concentration. Peptides were tested in plasma obtained from three volunteers (A, B, and C). Platelet function inhibitors PG12 and theophylline were added to the blood immediately upon collection. […]

[2] = Affinity coelectrophoresis (ACE) of peptide binding to radiolabeled low Mr heparin; set-up: species or system pig; settings: pH 7.0, mean and standard deviation of four assays, read-out: Kd (nM), affinity for low molecular weight heparin
Source text: Preparation of Radiolabeled Heparin. Whole heparin from pig intestinal mucosa (Sigma) was tyramine end-labeled and radiolabeled with Na^125I (Amersham, Pharmacia Biotech, Inc., Piscataway, N.J.) to an average specific activity≅1.0×10^7 CPM/μg as described (San Antonio, J. D., et al., Biochemistry, 32:4746-4755, 1993). Radiolabeled heparin was fractionated on Sephadex G-100 (Bio-Rad Laboratories, Hercules, Calif.) and the final≅12% of material to elute was retained as the low Mr material of ≦6,000 (Jordan, R., D. Beeler, and R. Rosenberg, J. Biol. Chem., 254:2902-2913, 1979; Laurent, T. C., et al., Biochem. J., 175:691-701, 1978).
Analysis of Peptide-Heparin Interactions by Affinity Coelectrophoresis (ACE). […]
Binding of radiolabeled heparin to peptides was studied by ACE as detailed elsewhere (San Antonio, J. D., et al., Biochemistry, 32:4746-4755, 1993). […] Gels were dried and PG mobility was measured with a Phosphorimager (Molecular Dynamics, Sunnyvale, Calif.) by scanning each protein lane and determining the relative radioactivity content per 88-μm pixel through the length of the lane. Retardation coefficient (R) measurements, binding isotherm curve fittings, and apparent Kd value determinations were calculated as detailed previously (Lee, M. K., and A. D. Lander, Proc. Natl. Acad. Sci. USA, 88:2768-2772, 1991; San Antonio, J. D., et al, Biochemistry, 32:4746-4755, 1993). […]

[3] = tested on: Lovenox ® Activity in Blood from Patients Treated with Lovenox ®; test: Neutralizing Lovenox activity in blood from patients treated with Lovenox (anti-Factor Xa assay); format: biochemical, human; settings: Peptide 12 μg/ml
Protocol: Blood was obtained from volunteers who were being treated with Lovenox® for their medical conditions after obtaining signatures on informed consent forms as approved by the Institutional Review Board. The assays to test neutralization of Lovendx® were performed as described for Table 2. A dose response from 1-60 μg/ml was evaluated as in Table 2.
The dose response pattern for the effective peptides was similar to the dose response in control plasma to which Lovenox® had been added. Each data point represents the mean and standard deviation of triplicate analyses on the same sample of blood from each patient.

[4] = blood of Lovenox-treated Patient Number 1
[5] = blood of Lovenox-treated Patient Number 2
[6] = blood of Lovenox-treated Patient Number 3
[7] = blood of Lovenox-treated Patient Number 4
[8] = blood of Lovenox-treated Patient Number 5
[9] = blood of Lovenox-treated Patient Number 8
[10] = blood of Lovenox-treated Patient Number 9
[11] = blood of Lovenox-treated Patient Number 10
[12] = blood of Lovenox-treated Patient Number 11

Row | Sequence | Unfractionated Heparin Neutralized ([1]; 1 μg/ml Peptide, A Plasma) | Unfractionated Heparin Neutralized ([1]; 1 μg/ml Peptide, B Plasma) | Unfractionated Heparin Neutralized ([1]; 1 μg/ml Peptide, C Plasma) | Unfractionated Heparin Neutralized ([1]; 1 μg/ml Peptide, Citrate) | Unfractionated Heparin Neutralized ([1]; 6 μg/ml Peptide, A Plasma) | Unfractionated Heparin Neutralized ([1]; 6 μg/ml Peptide, B Plasma) | Unfractionated Heparin Neutralized ([1]; 6 μg/ml Peptide, C Plasma) | Unfractionated Heparin Neutralized ([1]; 6 μg/ml Peptide, Citrate) | Unfractionated Heparin Neutralized ([1]; 12 μg/ml Peptide, A Plasma) | Unfractionated Heparin Neutralized ([1]; 12 μg/ml Peptide, B Plasma) | Unfractionated Heparin Neutralized ([1]; 12 μg/ml Peptide, C Plasma) | Unfractionated Heparin Neutralized ([1]; 12 μg/ml Peptide, Citrate) | Unfractionated Heparin Neutralized ([1]; 60 μg/ml Peptide, A Plasma) | Unfractionated Heparin Neutralized ([1]; 60 μg/ml Peptide, B Plasma) | Unfractionated Heparin Neutralized ([1]; 60 μg/ml Peptide, C Plasma) | Unfractionated Heparin Neutralized ([1]; 60 μg/ml Peptide, Citrate) | Unfractionated Heparin Neutralized ([1]; 120 μg/ml Peptide, A Plasma) | Unfractionated Heparin Neutralized ([1]; 120 μg/ml Peptide, B Plasma) | Unfractionated Heparin Neutralized ([1]; 120 μg/ml Peptide, C Plasma) | Unfractionated Heparin Neutralized ([1]; 120 μg/ml Peptide, Citrate) | further results
1 | AKKARAAKKARAAKKARAAKKARAAKKARAAKKARA [(AKKARA)6] | 0.206 ± 0.063 U/ml | 0.179 ± 0.005 U/ml | 0.125 ± 0.042 U/ml | 0.108 ± 0.056 U/ml | 0.530 ± 0.045 U/ml | 0.536 ± 0.023 U/ml | 0.533 ± 0.032 U/ml | 0.547 ± 0.019 U/ml | 0.556 ± 0.032 U/ml | 0.581 ± 0.023 U/ml | 0.590 ± 0.020 U/ml | 0.572 ± 0.040 U/ml | 0.562 ± 0.009 U/ml | 0.552 ± 0.014 U/ml | 0.625 ± 0.043 U/ml | 0.555 ± 0.002 U/ml | 0.511 ± 0.039 U/ml | 0.519 ± 0.016 U/ml | 0.575 ± 0.013 U/ml | 0.589 ± 0.025 U/ml | Kd [2]: 58 ± 16 nM; Lovenox ® Neutralized [3, 4]: 0.026 U/ml; Lovenox ® Neutralized [3, 5]: 0.096 U/ml; Lovenox ® Neutralized [3, 6]: 0 U/ml; Lovenox ® Neutralized [3, 7]: 0.171 U/ml; Lovenox ® Neutralized [3, 8]: 0.122 U/ml; Lovenox ® Neutralized [3, 9]: 0.128 U/ml; Lovenox ® Neutralized [3, 10]: 0.180 U/ml; Lovenox ® Neutralized [3, 11]: 0.173 U/ml; Lovenox ® Neutralized [3, 12]: 0.310 U/ml
2 | ARKKAAKAARKKAAKAARKKAAKAARKKCAKA [(ARKKAAKA)3ARKKCAKA, (ARKKAAKA)3(ARKKCAKA)] | 0.042 ± 0.029 U/ml | 0.104 ± 0.003 U/ml | 0.064 ± 0.012 U/ml | 0.070 ± 0.025 U/ml | 0.438 ± 0.004 U/ml | 0.453 ± 0.012 U/ml | 0.458 ± 0.049 U/ml | 0.416 ± 0.039 U/ml | 0.417 ± 0.024 U/ml | 0.445 ± 0.024 U/ml | 0.464 ± 0.091 U/ml | 0.392 ± 0.034 U/ml | 0.375 ± 0.043 U/ml | 0.328 ± 0.008 U/ml | 0.434 ± 0.053 U/ml | 0.373 ± 0.023 U/ml | 0.358 ± 0.015 U/ml | 0.323 ± 0.039 U/ml | 0.424 ± 0.027 U/ml | 0.362 ± 0.015 U/ml | Kd [2]: 54 ± 34 nM; Lovenox ® Neutralized [3, 4]: 0.096 U/ml; Lovenox ® Neutralized [3, 5]: 0.079 U/ml; Lovenox ® Neutralized [3, 6]: 0.084 U/ml; Lovenox ® Neutralized [3, 7]: 0.305 U/ml; Lovenox ® Neutralized [3, 8]: 0.274 U/ml; Lovenox ® Neutralized [3, 9]: 0.165 U/ml; Lovenox ® Neutralized [3, 10]: 0.232 U/ml; Lovenox ® Neutralized [3, 11]: 0.218 U/ml; Lovenox ® Neutralized [3, 12]: 0.157 U/ml
